Measurements published in paper doi:10.1101/2023.08.10.552545.

Tests used:
[1] = biological target: T1, IMC6^2-290-3xHA E245 amber mutant (Azi at 245) (Toxoplasma gondii) (UniProt S8F8Q1); experiment: cross-linking
T1 sequence (chain, p-azidophenylalanine (Azi) at 245 (amber stop codon in place of E245)): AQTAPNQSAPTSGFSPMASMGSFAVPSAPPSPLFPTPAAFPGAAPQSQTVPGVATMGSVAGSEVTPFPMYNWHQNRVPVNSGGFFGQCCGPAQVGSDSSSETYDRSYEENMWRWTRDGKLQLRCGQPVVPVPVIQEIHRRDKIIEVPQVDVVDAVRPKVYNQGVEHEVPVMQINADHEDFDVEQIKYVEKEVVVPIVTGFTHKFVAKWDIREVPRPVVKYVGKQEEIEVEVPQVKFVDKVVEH

[2] = biological target: T2, IMC6^2-290-3xHA E243 amber mutant (Azi at 243) (Toxoplasma gondii) (UniProt S8F8Q1); experiment: cross-linking
T2 sequence (chain, p-azidophenylalanine (Azi) at 243 (amber stop codon in place of E243)): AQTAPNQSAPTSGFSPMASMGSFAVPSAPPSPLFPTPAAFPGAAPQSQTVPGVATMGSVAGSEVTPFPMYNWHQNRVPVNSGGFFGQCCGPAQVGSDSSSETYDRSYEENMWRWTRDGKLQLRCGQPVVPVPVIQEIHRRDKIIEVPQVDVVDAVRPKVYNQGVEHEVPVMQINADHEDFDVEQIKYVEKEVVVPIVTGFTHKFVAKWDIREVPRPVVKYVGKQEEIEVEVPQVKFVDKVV

[3] = biological target: T3, IMC6^2-290-3xHA Q234 amber mutant (Azi at 234) (Toxoplasma gondii) (UniProt S8F8Q1); experiment: cross-linking
T3 sequence (chain, p-azidophenylalanine (Azi) at 234 (amber stop codon in place of Q234)): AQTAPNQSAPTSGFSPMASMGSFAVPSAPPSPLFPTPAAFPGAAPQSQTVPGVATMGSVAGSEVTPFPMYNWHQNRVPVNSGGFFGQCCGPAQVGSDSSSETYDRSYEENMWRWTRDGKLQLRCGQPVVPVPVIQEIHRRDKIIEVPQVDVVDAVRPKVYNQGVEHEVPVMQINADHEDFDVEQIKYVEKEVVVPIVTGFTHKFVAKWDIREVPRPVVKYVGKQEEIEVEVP

[4] = biological target: T4, IMC6^2-290-3xHA Y221 amber mutant (Azi at 221) (Toxoplasma gondii) (UniProt S8F8Q1); experiment: cross-linking
T4 sequence (chain, p-azidophenylalanine (Azi) at 221 (amber stop codon in place of Y221)): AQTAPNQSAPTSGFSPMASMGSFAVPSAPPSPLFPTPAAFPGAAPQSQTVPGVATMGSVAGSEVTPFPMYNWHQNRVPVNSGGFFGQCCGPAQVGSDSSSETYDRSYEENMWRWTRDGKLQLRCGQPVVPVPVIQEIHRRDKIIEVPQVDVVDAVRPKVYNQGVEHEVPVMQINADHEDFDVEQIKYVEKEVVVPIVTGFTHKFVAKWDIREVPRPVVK

[5] = biological target: T5, IMC6^2-290-3xHA E229 amber mutant (Azi at 229) (Toxoplasma gondii) (UniProt S8F8Q1); experiment: cross-linking
T5 sequence (chain, p-azidophenylalanine (Azi) at 229 (amber stop codon in place of E229)): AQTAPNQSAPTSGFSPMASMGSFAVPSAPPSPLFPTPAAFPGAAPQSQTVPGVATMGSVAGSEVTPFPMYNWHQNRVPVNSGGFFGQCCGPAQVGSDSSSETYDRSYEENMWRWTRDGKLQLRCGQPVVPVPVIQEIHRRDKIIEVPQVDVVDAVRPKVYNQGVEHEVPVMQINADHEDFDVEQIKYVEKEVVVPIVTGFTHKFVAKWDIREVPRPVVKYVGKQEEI

[6] = biological target: T6, IMC6^2-290-3xHA K277 amber mutant (Azi at 277) (Toxoplasma gondii) (UniProt S8F8Q1); experiment: cross-linking
T6 sequence (chain, p-azidophenylalanine (Azi) at 277 (amber stop codon in place of K277)): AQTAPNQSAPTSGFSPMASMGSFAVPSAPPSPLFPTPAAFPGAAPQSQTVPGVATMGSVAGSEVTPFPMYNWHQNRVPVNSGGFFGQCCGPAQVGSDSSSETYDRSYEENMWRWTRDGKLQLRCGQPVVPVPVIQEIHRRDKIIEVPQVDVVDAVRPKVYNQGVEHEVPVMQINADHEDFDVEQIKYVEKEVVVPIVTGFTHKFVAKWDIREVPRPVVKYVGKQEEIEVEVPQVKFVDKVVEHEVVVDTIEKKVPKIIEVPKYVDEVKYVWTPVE

[7] = biological target: T7, IMC6^2-290-3xHA N162* (Azi at 162) (Toxoplasma gondii) (UniProt S8F8Q1); experiment: cross-linking
T7 sequence (chain, p-azidophenylalanine (Azi) at 162 (amber stop codon in place of N162)): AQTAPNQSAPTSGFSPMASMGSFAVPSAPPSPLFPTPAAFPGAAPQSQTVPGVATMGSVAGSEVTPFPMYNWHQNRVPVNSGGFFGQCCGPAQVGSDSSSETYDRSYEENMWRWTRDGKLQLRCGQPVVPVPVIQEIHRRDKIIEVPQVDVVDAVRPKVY

[8] = biological target: T8, IMC6^2-290-3xHA K240 amber mutant (Azi at 240) (Toxoplasma gondii) (UniProt S8F8Q1); experiment: cross-linking
T8 sequence (chain, p-azidophenylalanine (Azi) at 240 (amber stop codon in place of K240)): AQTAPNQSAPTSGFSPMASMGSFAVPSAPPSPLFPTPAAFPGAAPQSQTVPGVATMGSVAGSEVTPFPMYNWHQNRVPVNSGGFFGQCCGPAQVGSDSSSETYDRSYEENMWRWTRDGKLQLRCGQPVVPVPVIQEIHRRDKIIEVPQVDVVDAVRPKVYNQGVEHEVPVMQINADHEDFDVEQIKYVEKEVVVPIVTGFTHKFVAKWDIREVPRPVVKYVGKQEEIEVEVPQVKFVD

[9] = biological target: T9, IMC6^2-290-3xHA K224 amber mutant (Azi at 224) (Toxoplasma gondii) (UniProt S8F8Q1); experiment: cross-linking
T9 sequence (chain, p-azidophenylalanine (Azi) at 224 (amber stop codon in place of K224)): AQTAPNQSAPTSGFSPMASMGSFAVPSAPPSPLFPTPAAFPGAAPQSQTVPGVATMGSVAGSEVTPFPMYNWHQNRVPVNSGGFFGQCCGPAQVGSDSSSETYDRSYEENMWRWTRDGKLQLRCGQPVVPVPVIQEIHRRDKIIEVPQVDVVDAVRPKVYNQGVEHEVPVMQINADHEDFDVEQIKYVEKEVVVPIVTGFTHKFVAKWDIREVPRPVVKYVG

[10] = biological target: T7, IMC6^2-290-3xHA N162* (Azi at 162) (Toxoplasma gondii); experiment: cross-linking + co-IP
[11] = biological target: T10, IMC6^2-290-3xHA F205 amber mutant (Azi at 205) (Toxoplasma gondii) (UniProt S8F8Q1); experiment: cross-linking
T10 sequence (chain, p-azidophenylalanine (Azi) at 205 (amber stop codon in place of F205)): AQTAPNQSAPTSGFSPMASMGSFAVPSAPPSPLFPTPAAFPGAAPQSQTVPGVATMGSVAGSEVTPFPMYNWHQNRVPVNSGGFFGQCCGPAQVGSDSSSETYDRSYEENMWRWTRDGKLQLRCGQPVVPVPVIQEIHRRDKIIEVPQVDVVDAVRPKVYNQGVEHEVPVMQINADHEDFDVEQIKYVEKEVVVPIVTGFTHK

[12] = biological target: T11, IMC6^2-290-3xHA H203 amber mutant (Azi at 203) (Toxoplasma gondii) (UniProt S8F8Q1); experiment: cross-linking
T11 sequence (chain, p-azidophenylalanine (Azi) at 203 (amber stop codon in place of H203)): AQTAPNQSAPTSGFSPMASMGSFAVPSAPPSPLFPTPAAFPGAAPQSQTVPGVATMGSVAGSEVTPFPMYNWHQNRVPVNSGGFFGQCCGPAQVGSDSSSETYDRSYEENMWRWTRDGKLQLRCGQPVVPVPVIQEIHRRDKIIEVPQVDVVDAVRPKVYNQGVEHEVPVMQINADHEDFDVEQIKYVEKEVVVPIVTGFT

[13] = biological target: T12, IMC6^2-290-3xHA Q185 amber mutant (Azi at 185) (Toxoplasma gondii) (UniProt S8F8Q1); experiment: cross-linking
T12 sequence (chain, p-azidophenylalanine (Azi) at 185 (amber stop codon in place of Q185)): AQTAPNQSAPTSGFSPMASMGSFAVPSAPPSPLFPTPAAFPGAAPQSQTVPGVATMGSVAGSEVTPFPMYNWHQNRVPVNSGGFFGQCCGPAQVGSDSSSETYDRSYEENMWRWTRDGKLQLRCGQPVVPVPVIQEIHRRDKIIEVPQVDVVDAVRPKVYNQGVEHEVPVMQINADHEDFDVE

Measured: binding

IMC3-smMyc (from UniProt S8FA55)
binds: [1] | [2] | [3] | [4] | [5] | [6] | [7] | [8] | [9]

IMC3 (from UniProt S8FA55)
binds: [10]

ILP1-smMyc
binds: [11] | [12] | [13]

No constants are given. Whether binding was seen depends on the method and setting. Binding seen in cells or lysates may run through a third protein. Binding can be weak; no strength is given.
